Laboratory results: PubChem BioAssay AID2685 (National Center for Advancing Translational Sciences (NCATS), 2010)
Several values for one entry are separate records, joined by “and”; a condition that tells them apart may be missing. Equal entries are not always repeated. The list shows a part of the results. Further columns of the screen follow, without active or inactive calls. Compounds called inactive in the main read-out are mostly missing here. Words in brackets tell the shape of the fitted curve; partial curves, single points and poor fits give uncertain potencies.

Assay: qHTS Assay for Lipid Storage Modulators in Drosophila S3 Cells;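 on cell number change: cells counted by Cell Tracker Red CMTPX staining in the red channel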
Settings: BODIPY lipid droplet fluorescence, 18-24 h; for cell number change: measured here: cell count max response, cells fed with added oleic acid
Procedure, shortened: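 Drosophila S3 cells loaded with oleic acid (400 uM, as added) and compounds at several concentrations; lipid droplets imaged by 488-nm laser-scanning cytometry, 500–530 nm intensity and object ratio to cell channel. Percent activity normalized to 20 uM Triacsin C.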

[1] = measured here: lipid fluorescence (Fed channel) AC50, cells fed with added oleic acid
[2] = measured here: cell number channel AC50, cells fed with added oleic acid

O=c1c2cccc3c(N4CCOCC4)ccc(c32)c2nc3ccccc3n12
cell number change: -13.4% | AC50 [1]: 29.1 µM [falling, single point]

O=C(O)c1ccccc1C(=O)NNC(=O)C(c1ccccc1)c1ccccc1
cell number change: 17.6% | AC50 [1]: 14.6 µM [rising, partial curve]

CCn1cc(C(=O)NCCc2ccc(OC)cc2)c(=O)c2ccc(C)nc21
cell number change: 11.3% | AC50 [1]: 13 µM [rising, partial curve]

Cn1c(=O)c2c(nc(SCC(=O)NCc3ccc4c(c3)OCO4)n2Cc2ccccc2)n(C)c1=O
AC50 [1]: 0.731 µM [rising, single point]

COc1ccc(OC)c(C2=NOC(C(=O)Nc3ccc4c(c3)OCCO4)C2)c1 (stereo not given)
cell number change: 7.56%

O=C1CC(c2ccccc2)c2cccc(F)c21 (stereo not given)
cell number change: 46.8% | AC50 [2]: 8.2 µM [rising, partial curve, poor fit] | AC50 [1]: 6.51 µM [rising, full curve, poor fit]

CC1CCN(CCNC(=O)c2ccc3c(=O)n(Cc4ccc(Cl)cc4)c(=S)[nH]c3c2)CC1
cell number change: -2.59% | AC50 [1]: 6.51 µM [rising, single point]

O=C(Nc1ccccc1C(=O)NCC1CCCO1)c1ccc(Cl)cc1Cl (stereo not given)
cell number change: -31.4% | AC50 [2]: 16.4 µM [falling, partial curve, poor fit] | AC50 [1]: 29.1 µM [falling, single point]

CCOc1ccc(C(=O)Nc2ccc(S(=O)(=O)NCC3CCCO3)cc2)cc1OCC (stereo not given)
cell number change: 1.74% | AC50 [1]: 18.4 µM [falling, single point]

Cc1ccccc1N1CCN(C2CCCN(C(=O)CCn3cnnn3)C2)CC1 (stereo not given)
cell number change: 32.4% | AC50 [2]: 0.0291 µM [rising, full curve, poor fit]

CN(C)/C=N/c1nc2nccc(-c3cccs3)n2n1
cell number change: -23.7%

Cc1cccc(NC(=O)/C(C#N)=C/c2ccc(F)cc2)n1
cell number change: -14.9% | AC50 [1]: 29.1 µM [falling, single point]

NNC(=O)Cn1cnc2ccccc21
cell number change: 1.23% | AC50 [2]: 0.517 µM [falling, single point]

COc1ccc(S(=O)(=O)N2CCC(C(=O)N[C@@H](C)C(=O)N3CCCCCC3)CC2)cc1
cell number change: 20.3% | AC50 [1]: 29.1 µM [rising, single point]

CCCCNC(=O)C(CC)Sc1nc2sc(C(=O)OC)c(C)c2c(=O)n1N (stereo not given)
cell number change: -4.6% | AC50 [1]: 32.6 µM [rising, single point]

COC(=O)c1ccc(/C=C2/SC(=S)N(CCC(=O)N3CCOCC3)C2=O)cc1
cell number change: 15.4%

COc1ccccc1NC(=O)/C=C/C(N)=O
cell number change: -90% | AC50 [2]: 18.4 µM [falling, single point] | AC50 [1]: 16.4 µM [falling, partial curve]

CCOC(=O)/C=c1\s/c(=C\c2ccc(C)cc2)c(=O)n1CC(=O)NCc1ccco1
AC50 [1]: 23.1 µM [falling, single point]

CCOc1ccc(NS(=O)(=O)c2ccc(OCC(=O)NCCCOC)cc2)cc1
AC50 [2]: 2.59 µM [rising, single point]

COc1ccc(C2CC(c3ccccc3)Nc3nc(N)nn32)cc1 (stereo not given)
cell number change: -12.5%

Cc1ccc2[nH]c3c(=O)n(Cc4ccco4)cnc3c2c1
cell number change: 23.9% | AC50 [1]: 29.1 µM [rising, single point]

Cc1ccc2nc(Nc3nc(-c4ccccc4)cc(=O)[nH]3)nc(C)c2c1
cell number change: -30.2% | AC50 [2]: 2.31 µM [falling, full curve, poor fit] | AC50 [1]: 3.66 µM [falling, full curve, poor fit]

CC(OC(=O)CC1CC2CCC1C2)C(=O)Nc1ccc(N2CCOCC2)cc1 (stereo not given)
cell number change: -15.9% | AC50 [1]: 0.00651 µM [falling, full curve, poor fit]

COc1ccc(C(=O)N(C)Cc2cnn(Cc3ccccc3)c2)cc1S(=O)(=O)N1CCOCC1
cell number change: 32.7% | AC50 [2]: 23.1 µM [rising, single point] | AC50 [1]: 25.9 µM [rising, partial curve, poor fit]

COc1cccc(CNC(=O)C(c2ccc(Cl)cc2)C(C)C)c1 (stereo not given)
cell number change: -6.11% | AC50 [1]: 4.11 µM [falling, full curve, poor fit]

CC1CCCC(NC(=O)CN2CCN(Cc3ccc(Cl)cc3)C2=O)C1C (stereo not given)
cell number change: -17.9% | AC50 [1]: 0.00461 µM [falling, full curve, poor fit]

O=C(Nc1ccc(OC(F)F)c(Cl)c1)c1ccccn1
cell number change: 78.2% | AC50 [2]: 16.4 µM [rising, single point] | AC50 [1]: 23.1 µM [rising, single point]

COc1ccccc1NS(=O)(=O)c1cccc(C(=O)NNC(=O)c2ccc(O)c(Cl)c2)c1
cell number change: 8.04% | AC50 [1]: 0.0058 µM [rising, full curve, poor fit]

Nc1c(Cl)ncnc1N/N=C/c1ccccn1
cell number change: 48.1% | AC50 [2]: 0.82 µM [rising, full curve, poor fit] | AC50 [1]: 23.1 µM [falling, partial curve]

Cc1cc(NC(=O)COC(=O)c2nccnc2N)n(-c2ccccc2)n1
cell number change: 33.4% | AC50 [2]: 14.6 µM [rising, single point] | AC50 [1]: 14.6 µM [rising, partial curve]

O=C1N/C(=N/N=C/c2ccccc2)SC1(c1ccccc1)c1ccccc1
cell number change: -23% | AC50 [1]: 11.6 µM [falling, partial curve]

CN(C)S(=O)(=O)c1cccc(NC(=O)c2ccc(COc3ccccc3)cc2)c1
cell number change: -42.6% | AC50 [2]: 14.6 µM [falling, partial curve] | AC50 [1]: 13 µM [falling, partial curve]

O=[N+]([O-])c1cc(/C=N/Nc2nc3ccccc3[nH]2)c(O)cc1O
cell number change: -15.8% | AC50 [1]: 29.1 µM [falling, single point]

COc1ccccc1NS(=O)(=O)N(C)C
cell number change: -72.1% | AC50 [2]: 23.1 µM [falling, partial curve]

CC(C)CCNC(=O)C(c1ccc(O)cc1)N(C(=O)C1COc2ccccc2O1)c1cccc(O)c1 (stereo not given)
cell number change: -30% | AC50 [1]: 10.3 µM [falling, partial curve, poor fit]

COc1ccc(N2CCN(C(=O)c3cccc(Br)c3)CC2)c([N+](=O)[O-])c1
cell number change: -10.5% | AC50 [2]: 0.731 µM [falling, single point] | AC50 [1]: 0.517 µM [falling, full curve]

CC(=O)Nc1ccc(C(=O)CSc2nnnn2C2CCCC2)cc1
cell number change: 29% | AC50 [1]: 14.6 µM [rising, single point]

O=[N+]([O-])c1ccc(Nc2nc(Cl)nc(NCCO)n2)cc1
cell number change: -47.3% | AC50 [2]: 29.1 µM [falling, partial curve, poor fit]

CCCCn1c(N)c(N(CC)C(=O)/C=C/c2ccco2)c(=O)[nH]c1=O
cell number change: -4.31%

COc1ccc2cc(-c3ccccc3)c(=O)oc2c1
cell number change: 20.9%

Cc1ccccc1CN1C(=O)c2ccccc2S(=O)c2ccc(C(=O)NCCCN3CCOCC3)cc21 (stereo not given)
cell number change: 10.4% | AC50 [2]: 0.058 µM [rising, full curve, poor fit] | AC50 [1]: 29.1 µM [falling, single point]

COc1cccc(OCC(=O)N2CCC3(CC2)CC(=O)c2ccccc2O3)c1
cell number change: -7.87% | AC50 [1]: 9.2 µM [falling, partial curve]

COc1ccc(CN(CC(=O)NC2CCCC2)C(=O)CCC(=O)Nc2nc(C)cs2)cc1
AC50 [1]: 0.259 µM [falling, partial curve, poor fit]

CCOC(=O)C1C(=O)Nc2nc3ccccc3n2C1C(C)C (stereo not given)
cell number change: -4.13% | AC50 [1]: 4.61 µM [falling, full curve, poor fit]

O=C(CN(C(=O)CNC(=O)c1cccs1)c1cccc(F)c1)NC1CCCCC1
AC50 [1]: 6.51 µM [rising, partial curve]

CCN(CC)CCNC(=O)c1ccc(NC(=O)c2cc(-c3ccco3)nc3ccccc23)cc1
cell number change: 14.1% | AC50 [1]: 2.31 µM [rising, single point]

CC(=O)Nc1cccc(NC(=O)CS(=O)(=O)c2cn(CC(=O)N(C(C)C)C(C)C)c3ccccc23)c1
cell number change: 5.2%

C[C@@H](C(=O)NCCc1ccc(F)cc1)N1C(=O)N2CCc3c([nH]c4ccccc34)[C@@]2(C)C1=O
cell number change: -24.9% | AC50 [2]: 3.66 µM [falling, full curve, poor fit] | AC50 [1]: 0.291 µM [falling, full curve]

Cn1cccc1-c1cc(C(=O)N/N=C/c2ccccc2Cl)[nH]n1
cell number change: 0.612% | AC50 [1]: 1.03 µM [rising, single point]

CCOC(=O)N1CCC(NCCNC(=O)c2ccccc2)CC1
cell number change: -5.2% and 5.55% | AC50 [1]: 7.31 µM [falling, full curve]

Cc1ccc(NC(=S)c2ccc3ccccc3n2)c(C)c1
cell number change: 21.7% | AC50 [1]: 5.17 µM [falling, full curve]

O=C(NNc1ncccc1-n1cccc1)c1ccc(Cl)cc1
cell number change: -1.32% | AC50 [2]: 0.13 µM [falling, full curve, poor fit]

Cc1ccc(NC(=O)/C(C#N)=C/c2ccccc2C(F)(F)F)cc1
cell number change: -2.73% | AC50 [1]: 0.82 µM [falling, partial curve, poor fit]

O=C(Nc1ccc(Cl)c(Cl)c1)Nc1ccccc1O
cell number change: -46.9% | AC50 [2]: 29.1 µM [falling, single point] | AC50 [1]: 29.1 µM [falling, single point]

COC(=O)c1cnn(-c2ccccc2)c1N
cell number change: -0.64%

O=C(CCNC(=O)c1ccco1)NCCc1ccc(Cl)cc1
cell number change: 21.1%

Cc1ccccc1NC(=O)NC1(C(=O)N2CCN(C)CC2)CCCCC1
cell number change: 16.4% | AC50 [1]: 6.51 µM [falling, single point]

Cc1ccc(C(=O)OCc2nc(N)nc(Nc3ccccc3C)n2)cc1
cell number change: 29.2% | AC50 [1]: 3.66 µM [rising, partial curve, poor fit]
